Experimental data reported in patent publication US5981483A, “Compositions comprising modulators of cytokines of the TGF-β superfamily” (Mount Sinai Hospital Corporation, priority 1997, dated 1999).
At least one compound was matched to its structure with a doubt left. Where a SMILES comes first, the peptide text is derived from it. Bridges are numbered along the chain shown (N, C = ends).

Protein sequences, listed by entry. Tags and fused reporters are not part of them. Residues count along the entry.
UniProt P01137, 279-390 limits assumed: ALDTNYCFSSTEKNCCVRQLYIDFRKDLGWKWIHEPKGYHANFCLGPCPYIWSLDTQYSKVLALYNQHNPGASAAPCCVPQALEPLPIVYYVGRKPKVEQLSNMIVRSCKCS

Biological target: T1, TGF-β1 (Homo sapiens, UniProt P01137)
T1 construct: The mature processed cytokines produced from the members of the gene family show almost 100% amino acid identity between species; purchased Collaborative Research (Bedford, Mass.)
Assay: BIAcore surface plasmon resonance, binding to immobilized TGF-β1
Conditions: Table 2 (calculations repeated); ligand TGF-β1; KD = kdiss/kass
Procedure: In this system, a purified protein serving as the ligand is covalently coupled to a carboxymethylated dextran surface, and binding molecules (i.e. the analyte) are passed in a fluid phase across the surface. Binding of the analyte to ligand causes a change in reflected light which is directly proportional to mass bound, and is measured in arbitrary response units (R.U.). Analyte-ligand binding is observed as both increasing response with time during the injection of analyte, and the difference in the position of the baseline before and after injection.
Schuster, R. V. Swanson, L. A. Alex, R. B. Bourret, M. I. Simon, Nature 365, 343 (1993). 1000 R.U. equals approximately 1 ng/mm^2. The running buffer was 20 mM Hepes (pH 7.2), 150 mM NaCl and the flow rate for all sensorgrams was 3 μl/min.
Regeneration of the surface to remove bound analyte was done by injection of 10 μl of 20 mM NaOH. To cyclize TRH1 peptides, the material was reduced with 5 mM DTT then brought to a final concentration of 60 μM in 25 mM ammonium acetate (pH 8.5). […]
Data was analyzed using the BIA-evaluation software (Pharmacia Biosensor). The association rate constant, kass, was calculated by first plotting the change in response with time versus response (i.e. dR/dT vs R). […] The affinity constants were calculated from KD =kdiss /kass. […]

## CC[C@H](C)[C@@H]1NC(=O)[C@H](CC(=O)O)NC(=O)[C@@H](N)CSSC[C@@H](C(=O)O)NC(=O)[C@H](CCCCN)NC(=O)[C@H]([C@@H](C)O)NC(=O)[C@H](Cc2ccccc2)NC(=O)[C@H](CC(C)C)NC(=O)[C@H](C(C)C)NC(=O)[C@H](CO)NC(=O)[C@H](Cc2ccccc2)NC(=O)[C@H](CCC(N)=O)NC(=O)CNC(=O)[C@H](CC(=O)O)NC(=O)[C@H](CCC(N)=O)NC(=O)[C@H](CCCCN)NC(=O)[C@H](CC(C)C)NC(=O)[C@H](C(C)C)NC(=O)[C@H](Cc2c[nH]cn2)NC1=O [TRH1b (fetuin)] (H-CDIHVLKQDGQFSVLFTKC-OH; disulfide 1-19; N-terminus and C-terminus assumed)
  Kd: > 10 µM
